These are yes or no findings as the source states them, for the method shown. Binding seen in cells or lysates may run through a third protein. These calls come from enrichment with a bait or labelling near it, and not all partners need be listed.
B1: δ-COP (ARCN1), endogenous in LNCaP cells (protein, UniProt P48444 1-511)
chain: MVLLAAAVCTKAGKAIVSRQFVEMTRTRIEGLLAAFPKLMNTGKQHTFVETESVRYVYQPMEKLYMVLITTKNSNILEDLETLRLFSRVIPEYCRALEENEISEHCFDLIFAFDEIVALGYRENVNLAQIRTFTEMDSHEEKVFRAVRETQEREAKAEMRRKAKELQQARRDAERQGKKAPGFGGFGSSAVSGGSTAAMITETIIETDKPKVAPAPARPSGPSKALKLGAKGKEVDNFVDKLKSEGETIMSSSMGKRTSEATKMHAPPINMESVHMKIEEKITLTCGRDGGLQNMELHGMIMLRISDDKYGRIRLHVENEDKKGVQLQTHPNVDKKLFTAESLIGLKNPEKSFPVNSDVGVLKWRLQTTEESFIPLTINCWPSESGNGCDVNIEYELQEDNLELNDVVITIPLPSGVGAPVIGEIDGEYRHDSRRNTLEWCLPVIDAKNKSGSLEFSIAGQPNDFFPVQVSFVSKKNYCNIQVTKVTQVDGNSPVRFSTETTFLVDKYEIL

The chains behind the UniProt entries cited, without tags or fusion partners.
UniProt P53618: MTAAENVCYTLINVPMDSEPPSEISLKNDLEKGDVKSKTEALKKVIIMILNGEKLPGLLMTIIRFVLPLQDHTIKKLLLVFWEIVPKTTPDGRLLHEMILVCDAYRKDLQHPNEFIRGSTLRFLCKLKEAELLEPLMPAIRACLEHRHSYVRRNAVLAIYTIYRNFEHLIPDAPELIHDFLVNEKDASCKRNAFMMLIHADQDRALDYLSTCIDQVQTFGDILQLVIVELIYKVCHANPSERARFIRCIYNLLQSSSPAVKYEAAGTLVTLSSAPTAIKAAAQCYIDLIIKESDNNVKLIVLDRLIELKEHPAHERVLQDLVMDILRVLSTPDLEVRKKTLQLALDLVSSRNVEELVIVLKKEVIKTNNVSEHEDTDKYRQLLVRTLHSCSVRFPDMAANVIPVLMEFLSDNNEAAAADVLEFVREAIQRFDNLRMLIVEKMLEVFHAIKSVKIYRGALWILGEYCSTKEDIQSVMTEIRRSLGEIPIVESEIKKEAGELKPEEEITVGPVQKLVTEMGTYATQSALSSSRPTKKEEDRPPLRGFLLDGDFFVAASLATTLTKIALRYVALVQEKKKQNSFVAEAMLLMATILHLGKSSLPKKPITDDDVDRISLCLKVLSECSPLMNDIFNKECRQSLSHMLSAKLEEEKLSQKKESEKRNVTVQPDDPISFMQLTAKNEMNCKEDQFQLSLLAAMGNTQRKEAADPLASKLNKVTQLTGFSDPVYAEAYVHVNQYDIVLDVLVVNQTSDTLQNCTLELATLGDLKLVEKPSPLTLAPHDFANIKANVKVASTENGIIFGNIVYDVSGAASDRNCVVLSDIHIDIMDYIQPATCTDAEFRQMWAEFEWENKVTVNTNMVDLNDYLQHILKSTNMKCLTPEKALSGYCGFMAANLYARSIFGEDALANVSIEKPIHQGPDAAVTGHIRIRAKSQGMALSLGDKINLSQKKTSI
UniProt P61923: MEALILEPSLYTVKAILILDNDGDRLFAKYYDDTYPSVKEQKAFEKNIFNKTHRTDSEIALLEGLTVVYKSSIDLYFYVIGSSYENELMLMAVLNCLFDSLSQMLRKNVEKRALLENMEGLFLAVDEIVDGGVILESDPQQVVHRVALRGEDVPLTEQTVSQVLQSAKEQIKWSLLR

Target: T1, Gemin4 CaMKK2 Binding Motif peptide, biotinylated
T1 sequence (peptide, biotin): SLTSFSQNA
Test: affinity purification with mass spectrometry; biotinylated Gemin4 CBM peptide or control peptide as bait with lysate of vehicle- and androgen-treated LNCaP cells; TMT6plex labelling, mass spectrometry; only the target purified

Molecule | binding
β-COP, endogenous in LNCaP cells (from UniProt P53618 1-953) | binds
ζ-COP, endogenous in LNCaP cells (from UniProt P61923 1-177) | binds
B1 | binds

Source: PMC8560770
